Assay results as given in PubChem BioAssay AID493014 (National Center for Advancing Translational Sciences (NCATS), 2011).
The other results are listed elsewhere or left out. The main result of the screen is listed elsewhere. These columns were measured beside it and carry no call. Most of these compounds were active or inconclusive in the main read-out, so they are no random draw. Potencies come from curve fits of mixed quality, noted in brackets.

Test: qHTS Assay to Find Inhibitors of Chronic Active B-Cell Receptor Signaling
Details: ABC-DLBCL IkBa-CBG/CBR reporter, luminescence ratio (green luciferase fused to IkBa over red control in TMD8 lymphoma cells), 4 h
How it was run: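 TMD8 ABC-DLBCL cells carrying doxycycline-inducible green luciferase fused to IkappaBalpha plus unfused red luciferase were exposed to compounds (up to 46 uM) for 4 hrs at 37C. Activity came from the overlap-corrected green/red luminescence ratio.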

[1] = measured here: CBR red luminescence, cell number
[2] = measured here: IkBa-CBG green luminescence

Compound	AC50 [1]	AC50 [2]
c1ccc2c(c1)Sc1ccccc1-n1cnnc1-2	1.16 µM [rising, full curve]	–
O=C(COC(=O)c1cccc(S(=O)(=O)N2CCN(c3ccccc3)CC2)c1)NCc1ccco1	35.5 µM [rising, partial curve, poor fit]	–
CCN(CC)c1nc(N)c2c(N)nc3c(c2c1C#N)CC(c1ccccc1)O3 (configuration not stated)	25.9 µM [falling, partial curve, poor fit]	–
Cc1snc(S(=O)(=O)/C(C#N)=N/Nc2cccc(C(F)(F)F)c2)c1C#N	29.1 µM [rising, single point]	–
Cc1ccc(C(=O)O/N=C(\N)c2ccccc2)c(Cl)c1	11.2 µM [falling, single point]	–
COc1ccc(NC(=O)CSc2nnc(-c3cccs3)n2Cc2ccco2)cc1OC	17.8 µM [falling, partial curve]	–
COc1ccc(C2=NOC(C(=O)Nc3ccc4c(c3)OCCO4)C2)c(OC)c1 (configuration not stated)	12.6 µM [falling, partial curve, poor fit]	–
COC(=O)c1ccc(CNC(=O)COC(=O)/C=C/c2cc(OC)c(OC)c(OC)c2)cc1	2.31 µM [rising, partial curve, poor fit]	–
COc1ccc(-c2nc(N)n(C(=O)c3ccc(C)cc3)n2)cc1	5.17 µM [falling, partial curve, poor fit]	–
Cc1ccc(C(=O)NCCSc2c(C)[nH]c3ccccc23)cc1[N+](=O)[O-]	–	20.6 µM [falling, single point]
O=C(c1ccccc1)c1nn(-c2ccc(Cl)cc2)c(=O)cc1C(F)(F)F	3.16 µM [falling, full curve, poor fit]	–
CCOCCCNC(=O)NC12CC3CC(CC(C3)C1)C2	5.62 µM [rising, single point]	–
Cc1ccc[n+](-c2nc([O-])sc2/C=N/Nc2ccc([N+](=O)[O-])cc2)c1	1 µM [rising, full curve, poor fit]	–
Nc1cc(N2CCCCC2)c(Cl)cc1[N+](=O)[O-]	29.1 µM [rising, single point]	–
O=C(NCCc1nc2ccccc2[nH]1)c1cc([N+](=O)[O-])cc([N+](=O)[O-])c1	–	25.9 µM [rising, partial curve, poor fit]
COc1cccc(N2CC(O)=C(c3nc4ccccc4s3)C2=N)c1	8.91 µM [rising, partial curve]	6.31 µM [falling, partial curve, poor fit]
c1ccc(N2CCN(c3nnc(Cc4cccnc4)c4ccccc34)CC2)nc1	15.8 µM [falling, single point]	–
C=C1SC(Nc2c(C)cc(C)cc2C)=NC12CCCCC2	5.62 µM [rising, single point]	–
CCCOc1ccc(C2C(=O)N(C3CCCCCC3)CC(=O)N2CCC)cc1OC (configuration not stated)	44.7 µM [falling, partial curve, poor fit]	–
COC(=O)N1C(=O)[C@@](c2ccccc2)(C2CCCCC2)N1C(=O)OC	10 µM [falling, partial curve, poor fit]	–
CCOC(=O)/C(C#N)=C/C1=C(N2CCOCC2)CC(C)(C)OC1	0.501 µM [rising, full curve, poor fit]	–

Compound	AC50 [1]	AC50 [2]
CCc1ccccc1NC1=NCC(=O)N1C1CCCC1	31.6 µM [rising, partial curve, poor fit]	–
COc1ccc(C(=O)O/N=C(\N)c2ccccc2)cc1	5.01 µM [falling, partial curve, poor fit]	0.1 µM [rising, full curve, poor fit]
CCCOC(=O)c1ccc(-c2c(C)noc2-c2ccc(OC)cc2O)o1	0.461 µM [rising, partial curve, poor fit]	0.461 µM [falling, full curve, poor fit]
CCn1c(SCC(=O)c2ccc(F)cc2)nnc1-c1ccoc1C	0.116 µM [falling, partial curve, poor fit]	–
COc1ccc(NC(=O)c2cc(-c3cccc(OC)c3)on2)cc1	8.91 µM [falling, partial curve, poor fit]	–
CCN(CC)C(=O)COc1ccc2c3c(c(=O)oc2c1)CCCC3	35.5 µM [rising, single point]	–
CCOC(=O)C1NN=C(C(=O)c2ccccc2)C1c1ccccc1 (configuration not stated)	29.1 µM [falling, single point]	–
NC1=NCC(O)=C1c1nc2ccccc2[nH]1	5.62 µM [falling, full curve]	–
C=C(C)CNC(=S)NNC(=O)c1ccco1	25.9 µM [rising, single point]	29.1 µM [falling, single point]
O=C(Cc1ccccc1)NC(c1ccco1)c1c(O)ccc2ccccc12 (configuration not stated)	35.5 µM [falling, single point]	–
CN(C)CCCN(C(=O)COc1ccccc1)c1nc2cc3c(cc2s1)OCO3	12.6 µM [falling, single point]	–
Cc1ccc(Nc2nnc(-c3ccc(C)c(S(N)(=O)=O)c3)c3ccccc23)cc1	11.2 µM [falling, partial curve, poor fit]	–
CC(C(=O)N1CCc2ccccc21)N1CCN(S(=O)(=O)c2ccc(C(F)(F)F)cc2)CC1 (configuration not stated)	29.1 µM [falling, single point]	–
O=C(N/N=C/c1cccc(O)c1)c1csc2ccccc12	5.01 µM [falling, partial curve]	–
Cc1[nH]c2ccccc2c1SCC(=O)N1CCCc2ccccc21	3.66 µM [rising, partial curve, poor fit]	–
O=C(N/N=C(\c1ccccc1)c1ccccn1)c1cccc([N+](=O)[O-])c1	–	10 µM [falling, partial curve, poor fit]
Cc1ccc(-c2noc(CCCOc3ccc(Cl)cc3Cl)n2)cc1	–	32.6 µM [rising, partial curve, poor fit]
Cc1ccc(CSCC(=O)N(C)CC(=O)Nc2ccc(Br)cc2C)cc1	18.4 µM [falling, single point]	–
COc1ccc(NC(=O)CN(C)CC(=O)Nc2cccc(C(F)(F)F)c2)cc1	35.5 µM [falling, single point]	–
O=c1nc(Nc2cccc(Cl)c2)oc2cc(Cl)oc(=O)c12	3.98 µM [falling, full curve, poor fit]	–
O=C(Oc1ccc2c(c1)OCC2=O)c1ccccc1	29.1 µM [rising, single point]	–

Compound	AC50 [1]	AC50 [2]
CSc1nc(SCC(=O)O)c2sc3nc(-c4ccccc4)c4c(c3c2n1)CCC4	20 µM [falling, partial curve, poor fit]	–
O=c1cc(CSc2ccccc2)nc(-c2ccncc2)[nH]1	25.1 µM [falling, single point]	–
Nc1c(C(=O)NCCN2CCOCC2)c2nc3ccccc3nc2n1-c1ccccc1	22.4 µM [falling, single point]	–
COCCSc1nnc(NS(=O)(=O)Cc2ccccc2)s1	3.66 µM [rising, partial curve]	–
C=C(C)COc1ccc(-c2nc(N)ncc2-c2ccc(OC)cc2)c(O)c1	35.5 µM [falling, single point]	–
NNC(=O)c1cc(O)c(O)c(O)c1	11.2 µM [falling, partial curve]	–
CC(C)(C)OC(=O)C[C@H]1C/C=C\C[C@H](CC(=O)N[C@H](CO)Cc2ccccc2)C(=O)N2CCC[C@@H]2COC1=O	4.61 µM [falling, single point]	–
C/C(=N\NC(=O)CC(C)C)c1ccc(Cl)c(Cl)c1	2.51 µM [rising, full curve, poor fit]	–
CN1C=CC=C/C1=C1\SC(=S)N(CC(=O)O)C1=O	35.5 µM [rising, single point]	–
COc1ccccc1/C=C(/NC(=O)c1ccccc1)C(=O)NCCCn1ccnc1	11.2 µM [falling, single point]	–
Cc1cccc(CCN=c2c([N+](=O)[O-])nn(-c3ccccc3)n2O)c1	0.398 µM [falling, partial curve, poor fit]	–
CCC(C)n1c(=S)[nH]c2ccccc2c1=O (configuration not stated)	0.891 µM [rising, full curve, poor fit]	–
COc1ccccc1-n1c(CNC(=O)c2ccco2)nnc1SCC(=O)Nc1ccc(F)cc1	3.98 µM [falling, full curve, poor fit]	–
CSc1ccccc1NC(=O)COC(=O)c1ccccc1O	10 µM [falling, partial curve]	–
COc1ccccc1-n1c(SCC(=O)NCc2ccc3c(c2)OCO3)nc2cc([N+](=O)[O-])ccc21	29.1 µM [falling, single point]	–
O=C(Nc1ccc(-c2noc(CCc3ccccc3)n2)cc1)c1ccco1	2.59 µM [rising, full curve]	–
Cn1c(=O)n(C)c2cc(NS(=O)(=O)c3ccc(Cl)s3)ccc21	22.4 µM [rising, partial curve, poor fit]	–
COc1cccc(NC(=O)CN(C)C(C)C(=O)NC(=O)NC2CCCCC2)c1 (configuration not stated)	29.1 µM [rising, single point]	–
Cc1nc(Nc2ccccc2)[nH]c(=O)c1CCC(C)C	9.2 µM [rising, single point]	–
CCN(CC)c1ccc(/C=C2/C(=O)ON=C2C)cc1	2.59 µM [falling, full curve]	–
Cc1ccccc1/C=N/Nc1nc2ccccc2[nH]1	11.2 µM [falling, partial curve, poor fit]	–

Reformatted: 13 of the compounds above.
Compound,AC50 [1],AC50 [2]
CSc1nc(SCC(=O)O)c2sc3nc(-c4ccccc4)c4c(c3c2n1)CCC4,"20 µM [falling, partial curve, poor fit]",–
O=c1cc(CSc2ccccc2)nc(-c2ccncc2)[nH]1,"25.1 µM [falling, single point]",–
Nc1c(C(=O)NCCN2CCOCC2)c2nc3ccccc3nc2n1-c1ccccc1,"22.4 µM [falling, single point]",–
COCCSc1nnc(NS(=O)(=O)Cc2ccccc2)s1,"3.66 µM [rising, partial curve]",–
C=C(C)COc1ccc(-c2nc(N)ncc2-c2ccc(OC)cc2)c(O)c1,"35.5 µM [falling, single point]",–
NNC(=O)c1cc(O)c(O)c(O)c1,"11.2 µM [falling, partial curve]",–
CN1C=CC=C/C1=C1\SC(=S)N(CC(=O)O)C1=O,"35.5 µM [rising, single point]",–
COc1ccccc1/C=C(/NC(=O)c1ccccc1)C(=O)NCCCn1ccnc1,"11.2 µM [falling, single point]",–
Cc1cccc(CCN=c2c([N+](=O)[O-])nn(-c3ccccc3)n2O)c1,"0.398 µM [falling, partial curve, poor fit]",–
COc1ccccc1-n1c(SCC(=O)NCc2ccc3c(c2)OCO3)nc2cc([N+](=O)[O-])ccc21,"29.1 µM [falling, single point]",–
O=C(Nc1ccc(-c2noc(CCc3ccccc3)n2)cc1)c1ccco1,"2.59 µM [rising, full curve]",–
Cn1c(=O)n(C)c2cc(NS(=O)(=O)c3ccc(Cl)s3)ccc21,"22.4 µM [rising, partial curve, poor fit]",–
Cc1ccccc1/C=N/Nc1nc2ccccc2[nH]1,"11.2 µM [falling, partial curve, poor fit]",–
